Drawing on patent US20210238281A1, this text covers binding for 4 molecules.

By UniProt entry, the sequences of proteins in these tests, tags left out. Residues count along the entry.
UniProt Q61885, residues 29-156: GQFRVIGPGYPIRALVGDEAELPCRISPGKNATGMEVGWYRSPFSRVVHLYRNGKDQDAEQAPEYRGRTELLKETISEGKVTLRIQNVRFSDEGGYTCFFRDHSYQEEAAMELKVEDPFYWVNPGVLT
UniProt Q16653, residues 30-154: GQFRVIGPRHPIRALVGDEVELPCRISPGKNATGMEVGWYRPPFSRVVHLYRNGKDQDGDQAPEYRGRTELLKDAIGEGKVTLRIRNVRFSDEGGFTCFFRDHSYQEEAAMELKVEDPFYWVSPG

Residue numbers refer to the chain shown, from its start. These are yes or no findings as the source states them, for the method shown. Some results given as binding are weak or reduced against the parent protein; the word gives no strength.

Experiment [1] deals with recombinant murine MOG protein (murine) (UniProt Q61885). Briefly: phage-scFv ELISA, compared with phage-scFv-8-18C5 positive control. In general terms: ELISA stands for enzyme-linked immunosorbent assay.
Experiment [2] deals with recombinant human MOG protein (human) (UniProt Q16653). Described as above.

B1: anti-MOG MO3I-34 antibody (scFv, V domains shown)
VH: EVQLVQSGAEVKKPGASVKVSCKASGYTFTSYGISWVRQAPGQGLEWMGWISAYNGNTNYAQKLQGRVTMTTDTSTSTAYMELRSLRSDDTAVYYCARNMGCSSTSCFVSWFDPWGQGTLVTVSS
VL: QSVLTQPPSVSAAPGQKVTISCSGSRSNIGSNYVSWYQQLPGTAPKLLIYDNTRRPSGIPDRFYGSKSGTSATLDITGLQTGDEADYHCATWDSSLSALLFGGGTKVTVL
For the molecule B1, the binding entry in experiment [1] and in experiment [2] was “binds” throughout.

B2: anti-MOG MO4H-04 antibody (scFv, V domains shown)
VH: B1 VH with G15V
VL: QSALTQPPSASGSPGQSVTISCTGTHSDVGSFDSVSWYQQHPDKAPKLIIYDVNKRPAGVPHRFSGSKSGNTASLTVSGLQSEDEADYYCNSYAGVDNFVFGTGTKVTVL
On to B2, for which the binding result in experiment [1] and in experiment [2] was “binds” each time.

B3: anti-MOG MO4H-46 antibody (scFv, V domains shown)
VH: QVQLVQSGAEVKKPGASVKVSCKASGYTFTSYAMHWVRQAPGQRLEWMGWINAGNGNAKYSQKFQGRVTLTRDTSASTAYMKLSSLRSEDTAVYYCARGAPTYRYFDLWGRGTLVTVSS
VL: QSVLTQPPSVSAAPGQKVTISCSGSSSNIGNNYVAWYQQLPGTAPKLLIYDNNKRPSGIPDRFSGSKSGTSATLGITGLQTGDEADYYCGTSDSSLSAVVFGGGTKLTVL
For B3, the binding entry in experiment [1] and in experiment [2] was “binds” in each case.

B4: anti-MOG MO4H-03 antibody (scFv, V domains shown)
VH: QVQLVQSGTEVKKPGASVKVSCKVSGYTLTELSMHWVRQAPGKGLEWMGGFDPEDGETIYAQKFQGRVTMTEDTSTDTAYMELSSLRSEDTAVYYCATGATGAFDIWGQGTTVTVSS
VL: DIVMTQTPLSSPVTLGQPASISCRSSQSLVDSDGNTYLNWLQQRPGQPPRLLIYKISNRFSGVPDRFSGSGAGTEFTLKISRVEAEDVGVYYCMQATQFPHTFGQGTKLEIK
Consider B4, for which the binding entry in experiment [1] and in experiment [2] was “binds” each time.
